Measurements: patent US20250235509A1, “Formulation and Method of Preparing Glucagon-like Peptide-1 (GLP-1) for Oral Administration” (priority 2024, published 2025)
At least one structure is not confirmed: it was looked up by name or label, or the drawing left a doubt.

Experiments:
blood glucose = assay: Blood glucose in mice after oral glucose solution; type: in vivo, mouse; conditions: 0.5 mg orally for 5 days, fasted four hours, 50 mg oral glucose
Experimental: The orally administered Liraglutide was prepared by incubating Liraglutide at 1.7 mM in 9.6 mM EDTA for two hours, followed by incubation of the mixture with 15 mM zinc acetate for twelve hours to produce a Liraglutide for oral administration. The experimental mice were orally given 0.5 mg Liraglutide, and the control mice were administered a vehicle solution for 5 days. Thereafter, experimental and control mice were fasted for four hours followed by an orally given 50 mg glucose solution. Three and a half hours later, blood glucose was determined. The control mice were given a non-Liraglutide vehicle (N=3).
The orally administered Semaglutide GLP-1 was prepared by incubating Semaglutide GLP-1 at 1.7 mM in 9.6 mM EDTA for two hours, followed by incubation of the mixture with 15 mM zinc acetate for twelve hours to produce a Semaglutide GLP-1 for oral administration. Experimental mice were orally given 0.5 mg Liraglutide, and control mice were given a vehicle solution for 5 days. Thereafter, experimental and control mice were fasted for four hours, followed by an orally given 50 mg glucose solution. Three and a half hours later blood glucose was determined. The control mice were given a non-Liraglutide vehicle (N=3).
Orally administered Tirzepatide GLP-1 was also shown to lower blood glucose levels in mice. […] Three hours later, blood glucose levels were determined. […]

[1] = Body weight change in mice given oral GLP-1 analog; type: in vivo, mouse; conditions: oral feeding over eight days, N=3 (FIG. 7)
Experimental: A quantity of orally administered Semaglutide GLP-1 was prepared as discussed in FIG. 8, and orally given to mice (Exp.) for seven days, along with control mice (Control) to which no Semaglutide GLP-1 was orally administered. Body weight was measured at the beginning and on the seventh day. The results are reflected in the following table:
In one experiment, orally administered Tirzepatide GLP-1 caused weight loss in mice. A quantity of orally administered Tirzepatide GLP-1 was prepared as discussed above, and orally given to mice (Exp.) for five days, along with control mice (Control) to which no Tirzepatide GLP-1 was orally administered. Body weight was measured at the beginning and on the fifth day.

## CCCCCCCCCCCCCCCC(=O)N[C@@H](CCC(=O)NCCCC[C@H](NC(=O)[C@H](C)NC(=O)[C@H](C)NC(=O)[C@H](CCC(N)=O)NC(=O)CNC(=O)[C@H](CCC(=O)O)NC(=O)[C@H](CC(C)C)NC(=O)[C@H](Cc1ccc(O)cc1)NC(=O)[C@H](CO)NC(=O)[C@H](CO)NC(=O)[C@@H](NC(=O)[C@H](CC(=O)O)NC(=O)[C@H](CO)NC(=O)[C@@H](NC(=O)[C@H](Cc1ccccc1)NC(=O)[C@@H](NC(=O)CNC(=O)[C@H](CCC(=O)O)NC(=O)[C@H](C)NC(=O)[C@@H](N)Cc1cnc[nH]1)[C@@H](C)O)[C@@H](C)O)C(C)C)C(=O)N[C@@H](CCC(=O)O)C(=O)N[C@@H](Cc1ccccc1)C(=O)N[C@H](C(=O)N[C@@H](C)C(=O)N[C@@H](Cc1c[nH]c2ccccc12)C(=O)N[C@@H](CC(C)C)C(=O)N[C@H](C(=O)N[C@@H](CCCNC(=N)N)C(=O)NCC(=O)N[C@@H](CCCNC(=N)N)C(=O)NCC(=O)O)C(C)C)[C@@H](C)CC)C(=O)O [Liraglutide]
Blood glucose; measured three and a half hours later, N=3
  blood glucose (average): 49.667
Blood glucose; three and a half hours later
  average difference in blood glucose, control mice vs treated mice: approximately 50%
[1]
  average percent change of body weight: 0.333%
